The values below come from patent US10363227B2, “Pharmaceutical formulation for use in the treatment and/or prevention of restenosis” (Centre Hospitalier Universitaire Vaudois (C.H.U.V.), priority 2013, dated 2019).

The subject of the assay is hVSMCs. Kind of assay: hVSMC transmigration, modified Boyden chamber. It counts as cell-based, human. The note with it: versus control cells without ATV. The procedure:
FIG. 5: The hydrogel incorporating ATV decreases transmigration. Upper panel: Transmigration of hVSMCs in presence or absence of ATV was assessed with the modified Boyden chamber technique. […] Bar represents 20 μm.
ATV incorporated in the hydrogels were assayed on primary human vascular smooth muscle cells (hVSMC) to test cell viability and accordingly whether ATV is released from the hydrogels in its active form. To that end, experiments on the influence of the drug on migration and transmigration of the hVSMC and the expression of different mRNAs of proteins involved in the cellular invasivity were performed.

Each structure is given as a SMILES string.

`CC(C)c1c(C(=O)Nc2ccccc2)c(-c2ccccc2)c(-c2ccc(F)cc2)n1CC[C@@H](O)C[C@@H](O)CC(=O)O` [ATV, Atorvastatin]: the “capacity of hVSMCs to transmigrate” value was “significant decrease”.
